# Measurements reported in patent publication US6716582B2 (priority 2000, dated 2004).
# At least one compound was matched to its structure with a doubt left.
# Test system: LuxArray 1.04 luxCDABE gene fusions
# Test: LuxArray 1.04 limonene stress in liquid culture
# Format: cell-based, E. coli
# Description: Microplates from −80° C. containing the LuxArray 1.04 E. coli strains were thawed and used to inoculate 100 μl LB medium supplemented with 100 μg/ml ampicillin in Costar#3595 flat bottomed 96-well microplates. Following overnight growth at 37° C., the plates were visually examined and any wells with little or no turbidity were recorded. Then these cultures were diluted by transfer of 15 μl to 135 μl LB medium in Costar #3595, flat bottom 96-well microplates and were moderately swirl shaken on an IKA Schuttler MTS 4 shaker at setting 400 for two hrs at 37° C. in a humidified box. Twenty μl of each these actively growing cultures were transferred to the corresponding well in sets of three microplates, one containing 80 μl of LB medium, another containing 80 μl of LB medium saturated with limonene at room temperature, and the third containing 40 μl of LB medium saturated with limonene and 40 μl of LB medium. An initial (zero time) reading was taken using an MLX microplate luminometer (Dynex) pre-warmed to 37° C. Then the plates were placed at 37° C. without shaking. Additional bioluminescent measurements were taken at 45, 90, and 135 minutes. To limit the number of microplates handled each day, LuxArray 1.04 microplates 1 to 5, microplates 6 to 10, microplates 11 to 15, and microplates […] were used on each of four different days.
# The data were normalized to correct for growth inhibition caused by limonene on the basis of each individual day that data was collected. The bioluminescence (RLU) of each individual culture for each day of experimentation under each of the three conditions, were added to determine the daily array total RLU. These were used to find a daily normalization factor (DNF) as follows:
# DNF=Daily total array signal (time zero, LB control)/Daily total array signal (time x, condition y)
# Each measurement from the corresponding day, time point, and condition was multiplied by DNF to yield a normalized signal. The data from wells that were scored to have little or no growth were not used in further analysis. The normalized data were analyzed with GeneSpring (Silicon Genetics) software, which averaged the signal from each of the duplicate cultures for each reporter gene fusion.
# Thus, patterns of gene expression from the 80% saturated limonene in LB medium were further examined. […] These lists were examined and gene fusions with very low normalized RLU values (<0.012 RLU) at all conditions were eliminated. […] The designation of “>2×” is given for upregulation while “*” is listed if the expression was less than 2 fold increased. At 45 minutes, the expression of fourteen gene fusions was increased; none of these was increased 3 fold or higher. At 90 minutes, 37 gene fusions were induced; these included all but one of the gene fusions observed at 45 minutes. […] These were fusions of the luxCDABE reporter to the promoter regions of uhpT (3.8×), nirB (3.7×) and narK (3.6×). At 135 minutes, 39 gene fusions were induced, which included 13 fusions not observed at 45 or 90 minutes.
smiles,measurement,setting,value
C=C(C)[C@H]1CC=C(C)CC1 [limonene],upregulation of gene fusion,"b0005-lux, 80% saturated limonene, 45 minutes",* (“*” is listed if the expression was less than 2 fold increased)
same,upregulation of gene fusion,"b0005-lux, 80% saturated limonene, 90 minutes",* (“*” is listed if the expression was less than 2 fold increased)
same,upregulation of gene fusion,"b0005-lux, 80% saturated limonene, 135 minutes",>2X (Lists were made of gene fusions that were upregulated by 2 fold or more; The designation of “>2×” is given for upregulation)
same,upregulation of gene fusion,"b0116 (lpdA)-lux, 80% saturated limonene in LB, 45 minutes",>2X (Lists were made of gene fusions that were upregulated by 2 fold or more; The designation of “>2×” is given for upregulation)
same,upregulation of gene fusion,"b0116 (lpdA)-lux, 80% saturated limonene, 90 minutes",>2X (Lists were made of gene fusions that were upregulated by 2 fold or more; The designation of “>2×” is given for upregulation)
same,upregulation of gene fusion,"b0116 (lpdA)-lux, 80% saturated limonene, 135 minutes",* (“*” is listed if the expression was less than 2 fold increased)
same,upregulation of gene fusion,"b0123 (yacK)-lux, 80% saturated limonene, 45 minutes",* (“*” is listed if the expression was less than 2 fold increased)
same,upregulation of gene fusion,"b0123 (yacK)-lux, 80% saturated limonene, 90 minutes",* (“*” is listed if the expression was less than 2 fold increased)
same,upregulation of gene fusion,"b0123 (yacK)-lux, 80% saturated limonene, 135 minutes",>2X (Lists were made of gene fusions that were upregulated by 2 fold or more; The designation of “>2×” is given for upregulation)
same,upregulation of gene fusion,"b0168 (map)-lux, 80% saturated limonene, 45 minutes",>2X (Lists were made of gene fusions that were upregulated by 2 fold or more; The designation of “>2×” is given for upregulation)
same,upregulation of gene fusion,"b0168 (map)-lux, 80% saturated limonene, 90 minutes",>2X (Lists were made of gene fusions that were upregulated by 2 fold or more; The designation of “>2×” is given for upregulation)
same,upregulation of gene fusion,"b0168 (map)-lux, 80% saturated limonene, 135 minutes",* (“*” is listed if the expression was less than 2 fold increased)
same,upregulation of gene fusion,"b0314 (betT)-lux, 80% saturated limonene, 45 minutes",* (“*” is listed if the expression was less than 2 fold increased)
same,upregulation of gene fusion,"b0314 (betT)-lux, 80% saturated limonene, 90 minutes",>2X (Lists were made of gene fusions that were upregulated by 2 fold or more; The designation of “>2×” is given for upregulation)
same,upregulation of gene fusion,"b0314 (betT)-lux, 80% saturated limonene, 135 minutes",>2X (Lists were made of gene fusions that were upregulated by 2 fold or more; The designation of “>2×” is given for upregulation)
same,upregulation of gene fusion,"b0386 (proC)-lux, 80% saturated limonene, 45 minutes",* (“*” is listed if the expression was less than 2 fold increased)
same,upregulation of gene fusion,"b0386 (proC)-lux, 80% saturated limonene, 90 minutes",* (“*” is listed if the expression was less than 2 fold increased)
same,upregulation of gene fusion,"b0386 (proC)-lux, 80% saturated limonene, 135 minutes",>2X (Lists were made of gene fusions that were upregulated by 2 fold or more; The designation of “>2×” is given for upregulation)
same,upregulation of gene fusion,"b0417-lux, 80% saturated limonene, 45 minutes",* (“*” is listed if the expression was less than 2 fold increased)
same,upregulation of gene fusion,"b0417-lux, 80% saturated limonene, 90 minutes",>2X (Lists were made of gene fusions that were upregulated by 2 fold or more; The designation of “>2×” is given for upregulation)
same,upregulation of gene fusion,"b0417-lux, 80% saturated limonene, 135 minutes",>2X (Lists were made of gene fusions that were upregulated by 2 fold or more; The designation of “>2×” is given for upregulation)
same,upregulation of gene fusion,"b0422 (xseB)-lux, 80% saturated limonene, 45 minutes",* (“*” is listed if the expression was less than 2 fold increased)
same,upregulation of gene fusion,"b0422 (xseB)-lux, 80% saturated limonene, 90 minutes",>2X (Lists were made of gene fusions that were upregulated by 2 fold or more; The designation of “>2×” is given for upregulation)
same,upregulation of gene fusion,"b0422 (xseB)-lux, 80% saturated limonene, 135 minutes",* (“*” is listed if the expression was less than 2 fold increased)
same,upregulation of gene fusion,"b0450 (glnK)-lux, 80% saturated limonene, 45 minutes",* (“*” is listed if the expression was less than 2 fold increased)
same,upregulation of gene fusion,"b0450 (glnK)-lux, 80% saturated limonene, 90 minutes",* (“*” is listed if the expression was less than 2 fold increased)
same,upregulation of gene fusion,"b0450 (glnK)-lux, 80% saturated limonene, 135 minutes",>2X (Lists were made of gene fusions that were upregulated by 2 fold or more; The designation of “>2×” is given for upregulation)
same,upregulation of gene fusion,"b0572-lux, 80% saturated limonene, 45 minutes",* (“*” is listed if the expression was less than 2 fold increased)
same,upregulation of gene fusion,"b0572-lux, 80% saturated limonene, 90 minutes",>2X (Lists were made of gene fusions that were upregulated by 2 fold or more; The designation of “>2×” is given for upregulation)
same,upregulation of gene fusion,"b0572-lux, 80% saturated limonene, 135 minutes",>2X (Lists were made of gene fusions that were upregulated by 2 fold or more; The designation of “>2×” is given for upregulation)
same,upregulation of gene fusion,"b0593 (entC)-lux, 80% saturated limonene, 45 minutes",* (“*” is listed if the expression was less than 2 fold increased)
same,upregulation of gene fusion,"b0593 (entC)-lux, 80% saturated limonene, 90 minutes",>2X (Lists were made of gene fusions that were upregulated by 2 fold or more; The designation of “>2×” is given for upregulation)
same,upregulation of gene fusion,"b0593 (entC)-lux, 80% saturated limonene, 135 minutes",>2X (Lists were made of gene fusions that were upregulated by 2 fold or more; The designation of “>2×” is given for upregulation)
same,upregulation of gene fusion,"b0767 (ybhE)-lux, 80% saturated limonene, 45 minutes",>2X (Lists were made of gene fusions that were upregulated by 2 fold or more; The designation of “>2×” is given for upregulation)
same,upregulation of gene fusion,"b0767 (ybhE)-lux, 80% saturated limonene, 90 minutes",>2X (Lists were made of gene fusions that were upregulated by 2 fold or more; The designation of “>2×” is given for upregulation)
same,upregulation of gene fusion,"b0767 (ybhE)-lux, 80% saturated limonene, 135 minutes",>2X (Lists were made of gene fusions that were upregulated by 2 fold or more; The designation of “>2×” is given for upregulation)
same,upregulation of gene fusion,"b0774 (bioA)-lux, 80% saturated limonene, 45 minutes",* (“*” is listed if the expression was less than 2 fold increased)
same,upregulation of gene fusion,"b0774 (bioA)-lux, 80% saturated limonene, 90 minutes",* (“*” is listed if the expression was less than 2 fold increased)
